Measurements from ChEMBL document CHEMBL5126609, “Design, Synthesis, and Pharmacological Evaluation of Benzimidazolo-thiazoles as Potent CXCR3 Antagonists with Therapeutic Potential in Autoimmune Diseases: Discovery of ACT-672125” (J Med Chem, 2022).
Values after ≈ are worked out from the molar mass of the structure shown.

Columns and labels:
[1] = Solubility of the compound in FeSSIF; details: simulated gi fluid
[2] = Solubility of the compound in FaSSIF; details: simulated gi fluid
[3] = Lipophilicity, log D of the compound at pH 7.4; details: buffer
[4] = physchem; details: buffer

Q: Which results are given for `Cc1nc(C)n(CC(=O)N2CCN(c3sc(C(F)(F)F)nc3-c3nc4ccc(-c5noc(C)n5)cc4[nH]3)C[C@H]2C)n1`?
A: solubility [1]: 742 µg/mL (≈ 1260 µM); solubility [2]: 128 µg/mL (≈ 218 µM); logD [3]: 3.6; solubility [4]: 83 µg/mL (≈ 141 µM)
